Results as given in paper PMC10383035.
No constants are given. Whether binding was seen depends on the method and setting. In cells and extracts the contact can be indirect. For part of these data: Binding calls can cover weak binding; strength is not graded here. Tags and fused reporters may be left off the sequences shown.

Tests used:
Assay in all cases: co-IP; HEK293T cells co-transfected with HA-tagged Card9 and FLAG-tagged Dok3 or truncation variants; lysates IP overnight at 4 °C with anti-FLAG or anti-HA antibodies and Protein A/G Plus Agarose beads; blotted with anti-HA and anti-FLAG
[1] = target: T1, HA-tagged Card9 truncation variant encoding the CARD domain (UniProt Q9H257)
T1 sequence: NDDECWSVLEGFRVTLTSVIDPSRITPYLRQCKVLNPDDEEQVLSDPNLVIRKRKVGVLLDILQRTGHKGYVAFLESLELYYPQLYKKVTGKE

[2] = target: T2, HA-tagged full-length Card9 (UniProt Q9H257)
T2 sequence: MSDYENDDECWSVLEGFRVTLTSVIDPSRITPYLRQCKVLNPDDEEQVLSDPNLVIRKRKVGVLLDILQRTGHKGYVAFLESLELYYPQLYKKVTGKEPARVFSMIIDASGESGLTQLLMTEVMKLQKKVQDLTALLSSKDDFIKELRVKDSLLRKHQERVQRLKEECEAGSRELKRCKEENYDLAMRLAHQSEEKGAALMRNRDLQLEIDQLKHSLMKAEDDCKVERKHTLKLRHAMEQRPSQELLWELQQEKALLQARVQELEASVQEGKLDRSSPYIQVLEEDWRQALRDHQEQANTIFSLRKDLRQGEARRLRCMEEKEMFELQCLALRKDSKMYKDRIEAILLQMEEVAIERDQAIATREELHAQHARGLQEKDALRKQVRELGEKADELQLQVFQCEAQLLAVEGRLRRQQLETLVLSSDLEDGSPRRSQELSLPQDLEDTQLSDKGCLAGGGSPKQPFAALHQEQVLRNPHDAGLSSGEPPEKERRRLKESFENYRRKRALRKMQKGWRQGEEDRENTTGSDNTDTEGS

[3] = target: FLAG-tagged Dok3 truncation variant bearing the PTB domain
[4] = target: FLAG-tagged Dok3 truncation variant bearing the SH2 domain
[5] = target: FLAG-tagged Dok3 truncation variant bearing the PH domain
[6] = target: FLAG-tagged full-length Dok3

Question: For FLAG-tagged full-length Dok3, which binding [1] is on record?
Answer: no binding

Question: What about the binding [2] of the same molecule?
Answer: binds

B1: HA-tagged full-length Card9 (protein, UniProt Q9H257 1-536)
chain: T2 sequence
Question: For B1, which binding [3] is on record?
Answer: binds

Question: And the binding [4]?
Answer: no binding

Question: What about the binding [5] of the same molecule?
Answer: binds

Question: What about the binding [6] of the same molecule?
Answer: binds
